PubChem BioAssay AID1508597 | Cure First – 2020
Test: 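Knock-downs altering ovarian cancer cell survival with or without PARP inhibitor rucaparib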 (primary screen). Cells: human ovarian carcinoma lines grown from tumours: OCI-P5x (papillary serous) and OCI-C5x (clear cell). Reagents: siRNA pool against human genes, 1.25 pmol siRNA per well. Timing: 72 h or 96 h, depending on the cell culture. Challenge: rucaparib 20 µM (about IC30) or vehicle, present until read-out. Rucaparib or vehicle: Vehicle. Cell line: OCI-P5x (serous). Detection: 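ATP luminescence measured at 72 or 96 h according to the culture, then normalised and expressed as percent viability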. Reading the numbers: viability, normalised: higher = more viable cells remaining. Hit rule: 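a well counts as a hit if its normalised viability is under 80 percent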. Calls: active = viability under 80%; inactive = viability 80% or more.
Shown is an unselected part of the about 2,100 reagents, in one setting of the screen. 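Calls flag viability under 80% in either arm, not effects specific to rucaparib; the reference for percent is not stated.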 Entries without a mark were called inactive. A reagent listed more than once was tested more than once; the source does not tell the runs apart. No sequences are given here. Not given: the 100% reference.

{"target": "CDK10 (GeneID 8558)", "technical replicate": "1", "viability, normalised (%)": 95.4}
{"target": "CDK10 (GeneID 8558)", "technical replicate": "2", "viability, normalised (%)": 90.6}
{"target": "CDK10 (GeneID 8558)", "technical replicate": "3", "viability, normalised (%)": 98.8}
{"target": "SMAD3 (GeneID 4088)", "technical replicate": "1", "viability, normalised (%)": "67.3 (active)"}
{"target": "SMAD3 (GeneID 4088)", "technical replicate": "2", "viability, normalised (%)": "66.2 (active)"}
{"target": "SMAD3 (GeneID 4088)", "technical replicate": "3", "viability, normalised (%)": "71.5 (active)"}
{"target": "DHX33 (GeneID 56919)", "technical replicate": "1", "viability, normalised (%)": "69.5 (active)"}
{"target": "DHX33 (GeneID 56919)", "technical replicate": "2", "viability, normalised (%)": "76.9 (active)"}
{"target": "DHX33 (GeneID 56919)", "technical replicate": "3", "viability, normalised (%)": "73.5 (active)"}
{"target": "GCK (GeneID 2645)", "technical replicate": "1", "viability, normalised (%)": "71.6 (active)"}
{"target": "GCK (GeneID 2645)", "technical replicate": "2", "viability, normalised (%)": "72.4 (active)"}
{"target": "GCK (GeneID 2645)", "technical replicate": "3", "viability, normalised (%)": 84.7}

Next part; the last 2 above are carried over.
{"target": "GCK (GeneID 2645)", "technical replicate": "2", "viability, normalised (%)": "72.4 (active)"}
{"target": "GCK (GeneID 2645)", "technical replicate": "3", "viability, normalised (%)": 84.7}
{"target": "LIMK2 (GeneID 3985)", "technical replicate": "1", "viability, normalised (%)": 87.9}
{"target": "LIMK2 (GeneID 3985)", "technical replicate": "1", "viability, normalised (%)": 84.5}
{"target": "LIMK2 (GeneID 3985)", "technical replicate": "2", "viability, normalised (%)": 83.3}
{"target": "LIMK2 (GeneID 3985)", "technical replicate": "2", "viability, normalised (%)": 80.1}
{"target": "LIMK2 (GeneID 3985)", "technical replicate": "3", "viability, normalised (%)": "79.4 (active)"}
{"target": "LIMK2 (GeneID 3985)", "technical replicate": "3", "viability, normalised (%)": 88.6}
{"target": "DIDO1 (GeneID 11083)", "technical replicate": "1", "viability, normalised (%)": "49.1 (active)"}
{"target": "DIDO1 (GeneID 11083)", "technical replicate": "2", "viability, normalised (%)": "53.9 (active)"}
{"target": "DIDO1 (GeneID 11083)", "technical replicate": "3", "viability, normalised (%)": "56.7 (active)"}
